Data from patent US12458621B1, “Application of genipin beta-methyl derivative gen-17 in preparation of drug for prevention and treatment of acute severe pneumonia” (KUNMING MEDICAL UNIVERSITY, priority 2024, dated 2025).
At least one compound was matched to its structure with a doubt left.

What was measured:
Format in all cases: in vivo, Kunming mice
IL-1β = IL-1β content in BALF by ELISA; conditions: DEX 0.39 mg/kg gavage, compared with LPS group (P<0.05)
Description: (§1) A total of 144 SPF-grade healthy Kunming mice, aged 5-7 weeks and weighing 18-22 g, are weighed and randomly allocated into six experimental groups: control group (NS), model group (LPS), dexamethasone group (DEX, […] per kilogram abbreviated as mg/kg), genipin beta-methyl derivative low-dose group (12.5 mg/kg), genipin beta-methyl derivative medium-dose group (25 mg/kg), and genipin beta-methyl derivative high-dose group (50 mg/kg), 24 animals per group, in which 12 animals are used to take lung tissue for the detection of other indicators, and another 12 animals are used to collect BALF.
(§2) All mice are gavaged with a same volume of 0.9% normal saline once a day in the NS group and the LPS group, DEX solution (0.39 mg/kg) is gavaged once a day in the DEX group, low-dose Gen-17 solution (12.5 mg/kg) is gavaged once a day in the medium-dose Gen-17 group, medium-dose Gen-17 solution (25 mg/kg) is gavaged once a day in the high-dose Gen-17 group, and high-dose Gen-17 solution (50 mg/kg) is gavaged once a day in the high-dose Gen-17 group. The dosage is converted according to the weight of the mice, and the gavage volume is 20 milliliters per kilogram (mL/kg), and the gavage is continued for 3 days. One hour after the gavage on the third day, the ALI model is established by tracheal instillation of LPS solution. […]

TNF-α = TNF-α content in BALF by ELISA; conditions: DEX 0.39 mg/kg gavage, compared with LPS group (P<0.05)
Description: as §1, §2

Keap1 = Keap1 protein in lung tissue by WB; conditions: DEX 0.39 mg/kg gavage, compared with LPS group
Description: (§3) The dosage is converted according to the weight of the mice, and the gavage volume is 20 milliliters per kilogram (mL/kg), and the gavage is continued for 3 days. One hour after the gavage on the third day, the ALI model is established by tracheal instillation of LPS solution. […] After the mice are awake, they are raised as usual. 2.3 Treatment of Experimental Animals and Collection of Lung Tissue Specimens
(§4) Samples are collected 24 hours after the animal model is established. The mice are weighed and 12 mice in each group are sacrificed. Lung tissues are collected and the whole lung wet weight is measured. […] After tidying, the lungs are photographed, excess tissues such as the trachea are cleared away, and the wet weight of the whole lung is measured to calculate the lung index. • (3) The upper lobe of the left lung is fixed in 4% neutral paraformaldehyde, fixed for 24 hours, paraffin-embedded and sectioned for HE staining. • (4) The remaining lung tissues are put into centrifugal tubes separately, quickly frozen in liquid nitrogen, and then stored at −80° C. after the experiment, which is used for the detection of MDA, SOD, western blotting (WB) and reverse transcription polymerase chain reaction (RT-PCR). […]
(§5) The lung tissue is taken out from −80° C., and its weight is accurately measured. […]

SOD = SOD activity in lung tissue; conditions: DEX 0.39 mg/kg gavage, compared with LPS group
Description: as §3, §4
The lung tissue is taken out from −80° C., and its weight is accurately measured.

IL-6 = IL-6 content in BALF by ELISA; conditions: DEX 0.39 mg/kg gavage, compared with LPS group (P<0.05)
Description: as §1, §2

LPS-induced ALI mice [1] = assay: Total cell count in BALF; conditions: DEX 0.39 mg/kg gavage, compared with LPS group (P<0.001)
Description: as §1, §2

LPS-induced ALI mice [2] = assay: Lung index (lung wet weight/body weight), LPS-induced ALI mice; conditions: DEX 0.39 mg/kg gavage, compared with LPS group
Description: as §1, with “BALF. […]” for “BALF.”
as §4, with “The mice are weighed and 12 mice in each group are sacrificed.” left out

Nrf2 = Nrf2 protein in lung tissue by WB; conditions: DEX 0.39 mg/kg gavage, compared with LPS group (P<0.05)
Description: as §3, §4, §5

LPS-induced ALI mice [3] = assay: HE staining histopathology and alveolitis score of lung tissue; conditions: DEX 0.39 mg/kg gavage
Description: as §3
as §4, with “measured. The lung tissues are packaged for hematoxylin and eosin (HE) staining, MDA and SOD content determination, gene and protein detection.” for “measured.”

LPS-induced ALI mice [4] = assay: Total protein concentration in BALF by BCA; conditions: DEX 0.39 mg/kg gavage, compared with LPS group (P<0.05)
Description: as §1, §2

With `C[C@@H]1C[C@H]2[C@@H]3CCC4=CC(=O)C=C[C@]4(C)[C@@]3(F)[C@@H](O)C[C@]2(C)[C@@]1(O)C(=O)CO` [DEX, dexamethasone, reference compound] the “content of IL-1β in BALF” value (IL-1β) was “reduce the contents of inflammatory cytokines”, the “content of TNF-α in BALF” value (TNF-α) was “reduce the contents of inflammatory cytokines” and the “expression of Keap1 protein in lung tissue (decrease)” value (Keap1) was “statistically significant (P<0.001)”. The “SOD activity in lung tissue (increase)” value (SOD) was “statistical significance (P<0.05)”, the “content of IL-6 in BALF” value (IL-6) was “reduce the contents of inflammatory cytokines” and the “total cell counts in BALF” value (LPS-induced ALI mice [1]) was “decreased significantly”. The lung index (LPS-induced ALI mice [2]) was “statistically significant (P<0.01)”, the “expression of Nrf2 protein in lung tissue (increase)” value (Nrf2) was “statistically significant” and the “pathological damage of lung tissue (HE staining)” value (LPS-induced ALI mice [3]; compared with LPS group) was “significantly alleviate the pathological damage”. The “pathological score of lung tissue” value (LPS-induced ALI mice [3]; compared with LPS group (P<0.01)) was “significantly reduced” and the “total protein content in BALF” value (LPS-induced ALI mice [4]) was “significantly reduced”.
